Assay results published in the supplement of paper PMC10338343.
± gives the standard deviation. Only a part is listed here, and it is no random draw. The uncertainty is large for many entries. Some of the results follow.

Tests used:
[1] = system: MIWI (PIWIL1) piRISC loaded with L1MC piRNA (30 nt); assay: pre-steady-state target cleavage rate (min^-1); higher = faster piRNA-guided slicing of the target; details: guide: L1MC piRNA 5'p-UAACUAAAUACUAUGCAAGCUGUAGGUCCU;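 note: 1 nM active piRISC with 0.1 nM target library at 33 °C single turnover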
Procedure, shortened: (§1)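 At 33 °C in HEPES–potassium acetate buffer, a transcribed, DNA-blocked target RNA library […] was exposed for 0–8 or 0–960 min to 1 nM active affinity-purified piRISC carrying a single synthetic guide, with or without 500 nM GTSF1 partner protein. Uncleaved targets were sequenced and normalised to depth and to weakly complementary targets. With three trials pooled and k3 capped at 0.0001 min^-1, a burst-and-steady-state fit produced the pre-steady-state cleavage rate.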

[2] = system: EfPiwi piRISC loaded with L1MC piRNA (26 nt); assay: pre-steady-state target cleavage rate (min^-1); guide: L1MC piRNA 5'p-UAACUAAAUACUAUGCAAGCUGUAGG; MIWI and MILI are mouse PIWI proteins and EfPiwi is from a freshwater sponge; tags in brackets are library labels; higher = faster piRNA-guided slicing of the target
Procedure, shortened: as §1

[3] = auxiliary factor: none (no GTSF1)
[4] = auxiliary factor: 500 nM Ephydatia muelleri Gtsf1
[5] = auxiliary factor: none (no Gtsf1)
[6] = auxiliary factor: 500 nM mouse GTSF1

| Sequence | pre-steady-state target cleavage rate [1, 3] | pre-steady-state target cleavage rate [2, 4] | pre-steady-state target cleavage rate [2, 5] | pre-steady-state target cleavage rate [1, 6] |
| --- | --- | --- | --- | --- |
| UCCUGGAUGAGCUAGGAUAGUAUUUAGUUA | 0.0019 ± 0.0039 | 0.000634 ± 0.0084 | 0.000168 ± 0.055 | – |
| UCCUGGUACACGAUGCAUAGUAUUUAGUUA | 0.00221 ± 0.0028 | 0.00161 ± 0.0035 | 0.000302 ± 0.022 | – |
| UCCUGCUACAGCAAGCAUAGUAUUUAGUAA | 0.00118 ± 0.005 | 0.00213 ± 0.0025 | 0.000182 ± 0.018 | – |
| UCCUGGUACAGCUUGCAUAGUAUUAGUUA | 0.00252 ± 0.0033 | 0.00246 ± 0.0029 | 0.000787 ± 0.01 | – |
| UCCUGGAUGUCGUUGCAUAGUAUUAUAGUUA | 0.00131 ± 0.0059 | 0.00201 ± 0.0053 | 0.000226 ± 0.046 | – |
| UCCUGGAUGAGCUUGCUAAGUAUUUAGUUA | 0.00229 ± 0.0025 | 0.00188 ± 0.0037 | 0.000796 ± 0.0089 | – |
| UCCUGCUACAGCUUGCAUAGUAAUUAGAAA | 0.00196 ± 0.0036 | 0.00362 ± 0.0016 | 0.000308 ± 0.014 | – |
| UCCUGGAUCAGCUUGCAUAGUAAUUUCAAA | 0.000357 ± 0.0081 | 0.00308 ± 0.0043 | 0.000466 ± 0.012 | – |
| UCCUGGAUGUCCUUCCAUACUAUUUAGUUA | 0.000116 ± 0.029 | 0.000689 ± 0.0067 | 0.000108 ± 0.045 | – |
| UCCUGGAUGUCGUUGCAUAGUACUUUAGUUA | – | 0.000363 ± 0.01 | 0.000514 ± 0.016 | 0.000491 ± 0.018 |
| UCCUGGAUCAGCUUCCAUAGUAUUAAGUUA | 0.000166 ± 0.021 | 0.000552 ± 0.0068 | 0.000149 ± 0.043 | – |
| UCCUGGUACAGCUUCCAAAGUAUUUAGUUA | 0.00214 ± 0.0022 | 0.00178 ± 0.003 | 0.000592 ± 0.015 | – |
| UCCUGGAUGUGCUUCCAUAGAAUUUAGUUA | 0.000828 ± 0.0074 | 0.000412 ± 0.0077 | 0.000358 ± 0.013 | – |
| UCCUCCUACAGGAAGCAUAGUAUUUUCAAA | 0.000242 ± 0.013 | 0.000244 ± 0.011 | 0.00013 ± 0.039 | – |
| UCCUGGAUGAGCUUGCAUAGAUAUUACAAA | 0.00102 ± 0.0076 | 0.00153 ± 0.0072 | 0.000391 ± 0.022 | – |
| UCCUGGAUGAGCUUGCAUACAUAAAUCAAA [g12:g21:cont:t1A] | 0.000152 ± 0.023 | 0.000175 ± 0.022 | 0.000496 ± 0.022 | – |
| UCCUGGAUGAGGUUGCAUAGUAAUUAGUUA | 0.00206 ± 0.004 | 0.00522 ± 0.003 | 0.000699 ± 0.019 | – |
| UCCUGGAUGUGGUAGCAUAGUAUUUAGUUA | 0.002 ± 0.0054 | 0.00356 ± 0.0033 | 0.0041 ± 0.0053 | – |
| UCCUGGAACAGCUUGCAAUCUAUUUAGUAA | 0.00179 ± 0.0032 | 0.00153 ± 0.0061 | 0.000424 ± 0.017 | – |
| UCCUGGAUGUCCUAGCAUAGUAUUAAGUUA | 0.00104 ± 0.0053 | 0.000274 ± 0.0081 | 0.00012 ± 0.023 | – |
| UCCUCCUACAGCUUGCAUAGUUUUAGUUA | 0.00127 ± 0.0056 | 0.00276 ± 0.0023 | 0.0002 ± 0.019 | – |
| UCCUGGAUCAGCUUGCAUUCAAUUUAGAAA | 0.000624 ± 0.007 | 0.000741 ± 0.0051 | 0.000194 ± 0.025 | – |
| UCCUGGAUGAGGAUGCAUAGUAUUUAGUUA | 0.00252 ± 0.0029 | 0.00336 ± 0.0024 | 0.0019 ± 0.0057 | – |
| UCCUGGAUGUCGUUGCAUAGUAUUUAAGUUA | 0.00274 ± 0.0037 | 0.00159 ± 0.006 | 0.00146 ± 0.007 | – |
| UCCUGGAUGUCCUUGCAUACAAUUUAGUUA | 0.00119 ± 0.0043 | 0.00091 ± 0.0057 | < 0.0001 | – |

| Sequence | pre-steady-state target cleavage rate [1, 3] | pre-steady-state target cleavage rate [2, 4] | pre-steady-state target cleavage rate [2, 5] | pre-steady-state target cleavage rate [1, 6] |
| --- | --- | --- | --- | --- |
| UCCUGGAUGUCGCUGCAUAGUAUUUAGUUA | 0.00177 ± 0.0043 | 0.00471 ± 0.0025 | 0.00089 ± 0.012 | – |
| UCCUGGAUGUCGUUGCAUAGUAAUUAGAUA | 0.000717 ± 0.01 | 0.00169 ± 0.0047 | 0.000382 ± 0.018 | – |
| UCCUGCUACAGCUUGCAUACAAUUUAGUUA | 0.00328 ± 0.0036 | 0.00307 ± 0.0028 | 0.000438 ± 0.01 | – |
| UCCUGGAUGAGCUUGACAUAGUAUUUAGUUA | 0.00329 ± 0.0037 | 0.00729 ± 0.0021 | 0.000789 ± 0.0095 | – |
| UCCUGGAUGAGCUUGGUUAGUAUUUAGUAA | 0.00269 ± 0.0034 | 0.000691 ± 0.0063 | 0.000621 ± 0.013 | – |
| UCCUCCUACAGCUUGCAUUGUAUUUUCAAA | 0.00112 ± 0.0048 | 0.00284 ± 0.0038 | 0.000154 ± 0.033 | – |
| UCCUGGAUGUCGAUGCAUCGUAUUUAGUUA | 0.0014 ± 0.0056 | 0.00141 ± 0.0047 | < 0.0001 | – |
| UCCUGGUACAGCUACGAUAGUAUUUAGUUA | 0.00125 ± 0.0042 | 0.000512 ± 0.0078 | 0.00101 ± 0.0085 | – |
| UCCUGGAUGUCGAAGCAAUCUAUUUAGUUA | 0.000408 ± 0.011 | 0.00026 ± 0.012 | 0.000375 ± 0.017 | – |
| UCCUGGAUGUCGAAGCAUAGUAUUUAGUUA [g2:g16:cont:t1A] | 0.00228 ± 0.0024 | 0.00352 ± 0.002 | 0.00105 ± 0.0072 | – |
| UCCUGGAACAGCUUGCAUAGUAUUAUCUAA | 0.00303 ± 0.003 | 0.00153 ± 0.0034 | 0.000836 ± 0.0069 | – |
| UCCUGGAUGUCGAAGCAAAGUAUUUACUUA | 0.000352 ± 0.019 | 0.000299 ± 0.021 | < 0.0001 | – |
| UCCUCCUACAGCUUGCAUAGUAAAAACAAA | 0.000659 ± 0.014 | 0.00389 ± 0.0036 | 0.000439 ± 0.021 | – |
| UCCUGGAACAGCUUGCAUUGUAUUUUCAAA | 0.00205 ± 0.004 | 0.00128 ± 0.0038 | 0.000273 ± 0.026 | – |
| UCCUCCUACAGCUUGCAUAGUAAAUAGAAA | 0.0011 ± 0.007 | 0.00187 ± 0.002 | 0.000194 ± 0.03 | – |
| UCCUGGAUGUCGUUGCAUAGUAUUUGGUUA | 0.00239 ± 0.0038 | 0.00273 ± 0.0046 | 0.000326 ± 0.029 | – |
| UCCUGGAUGUCCUUGCAUACAUUUUAGUUA | 0.000739 ± 0.0075 | 0.000604 ± 0.0084 | 0.000256 ± 0.027 | 0.00159 ± 0.008 |
| UCCUGCUAGUCCUUGCAUAGUAUUUUCAAA | 0.000773 ± 0.0073 | 0.00149 ± 0.0043 | 0.000344 ± 0.018 | 0.00409 ± 0.0054 |
| UCCUGGAUGUGCUUGCAUUCUAUUUAGUAA | 0.000704 ± 0.0067 | 0.000288 ± 0.019 | 0.00011 ± 0.062 | 0.00164 ± 0.0083 |
| UCCUGGAUGUGCUUGCAUAGUAUUUUAGUUA | 0.021 ± 0.0069 | 0.00401 ± 0.005 | 0.000434 ± 0.044 | 0.128 ± 0.018 |
| UCCUGGAUGAGCUUGCUAAGUAUUUAGAAA | 0.000479 ± 0.0051 | 0.000338 ± 0.011 | 0.000131 ± 0.029 | 0.0015 ± 0.0075 |
| UCCUGGAUCAGCUUGCAUAGUCUUUAGUUA | 0.0552 ± 0.012 | 0.0204 ± 0.0053 | 0.00181 ± 0.0077 | 0.841 ± 0.035 |
| UCCUGGAUGUCGUAGCAUAGUAUUUAGAUA | 0.00025 ± 0.017 | 0.00105 ± 0.0061 | 0.000554 ± 0.011 | 0.000965 ± 0.0094 |
| UCCUGGAUGUGCUUGCAUAGUUAUUUAGUUA | 0.00241 ± 0.0041 | 0.000945 ± 0.0072 | 0.000543 ± 0.018 | 0.00378 ± 0.0046 |
| UCCUGGAUGUCGUUGCAUAAUAUUUAGUUA | 0.00132 ± 0.0056 | 0.000746 ± 0.0058 | 0.00062 ± 0.013 | 0.00371 ± 0.0054 |

An excerpt of these results, bar-delimited:
Sequence | pre-steady-state target cleavage rate [1, 3] | pre-steady-state target cleavage rate [2, 4] | pre-steady-state target cleavage rate [2, 5] | pre-steady-state target cleavage rate [1, 6]
UCCUGCUAGUCCUUGCAUAGUAUUUUCAAA | 0.000773 ± 0.0073 | 0.00149 ± 0.0043 | 0.000344 ± 0.018 | 0.00409 ± 0.0054
UCCUGGAUGUGCUUGCAUUCUAUUUAGUAA | 0.000704 ± 0.0067 | 0.000288 ± 0.019 | 0.00011 ± 0.062 | 0.00164 ± 0.0083
